The nature of the test: qHTS Assay for Lipid Storage Modulators in Drosophila S3 Cells.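 On cell number change: cells counted by Cell Tracker Red CMTPX staining in the red channel.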 Conditions: BODIPY lipid droplet fluorescence, 18-24 h; for cell number change: measured here: cell count max response, cells fed with added oleic acid. The essentials: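 Drosophila S3 cells loaded with oleic acid (400 uM, as added) and compounds at several concentrations; lipid droplets imaged by 488-nm laser-scanning cytometry, 500–530 nm intensity and object ratio to cell channel. Percent activity normalized to 20 uM Triacsin C.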
In general terms: Quantitative high-throughput screening tests each substance at several concentrations.

Where [1] appears, read: measured here: cell number channel AC50, cells fed with added oleic acid.
Where [2] appears, read: measured here: lipid fluorescence (Fed channel) AC50, cells fed with added oleic acid.

The list shows a part of the results. These are further read-outs of the screen, such as a control signal, another cell line or another target. No call is given for them. Most of these compounds were active or inconclusive in the main read-out, so they are no random draw. The note in brackets gives the kind of curve behind each potency; many fits are weak.

Broadly, the AC50 is the concentration giving half of the maximal activity seen. On to `COc1ccc(-c2nn(-c3ccccc3)cc2C(=O)NC2CCC(C)CC2)cc1` (stereo unspecified), for which the cell number change was -14.9%. Under setting [1], the AC50 was 0.731 µM [falling, single point]. In the case of `COc1cccc(C(=O)Nc2nnc(SCC(=O)Nc3ccc(NC(C)=O)cc3)s2)c1`, the cell number change is -7.78%. The same measure, in the same setting: the figure for `COC(=O)c1ccc2c(=O)n(CCN3CCOCC3)c(SCC(=O)Nc3cccc(OC)c3)nc2c1` is 3.05%. Regarding `CCC1(c2ccc(F)cc2)NC(=O)N(CC(=O)N2c3ccccc3NC(=O)CC2C)C1=O` (stereo unspecified), the cell number change is -53.2%. Also, the AC50 under setting [1] is 29.1 µM [falling, single point]. The AC50 under setting [2] was 2.06 µM [rising, full curve]. Take `CCOC(=O)c1cnc2c(ccc3ccccc32)c1Cl`: the cell number change was 16.9%. Further, under setting [2], the AC50 was 29.1 µM [rising, partial curve, poor fit]. Regarding `Cc1ccc(-c2cc(C)nc3nc(N)nn23)cc1`, the cell number change was 1.89%. Also, the concentration at half-maximal activity (AC50) under setting [2] was 1.84 µM [rising, partial curve]. For `O=C(O)CCCC(=O)NCCCc1ccccc1`, the cell number change turned out to be 16.1%. On to `Cc1ccccc1NC(=O)c1c(O)c2cccc3c2n(c1=O)CC3`, for which the AC50 under setting [1] is 0.326 µM [rising, full curve] and the AC50 under setting [2] was 1.84 µM [rising, partial curve]. Consider `CSc1ncc(C(=O)NCCCc2ccccc2)c(C)n1`, for which the cell number change is 22.5%. In the case of `COC(=O)c1c(C)[nH]c(C(=O)CSc2ncnc3sc(-c4ccccc4)cc23)c1C`, the cell number change was -36.9%. The AC50 under setting [2] is 8.2 µM [falling, partial curve, poor fit]. As for `COc1ccc(OC)c(NC(=O)CC2C(=O)NCCN2C(=O)Nc2cccc(Cl)c2)c1` (stereo unspecified), the cell number change is -12%. In the case of `CNc1ccc(/C=C/C(=O)c2ccc(C)cc2)cc1[N+](=O)[O-]`, the cell number change was -20%. For the same molecule, the half-maximal activity concentration (AC50) under setting [2] was 29.1 µM [falling, single point].

As for `CN(NS(=O)(=O)c1ccc(Cl)cc1)c1ncc(C(F)(F)F)cc1Cl`, the cell number change was -18%. For the same molecule, the AC50 under setting [2] is 29.1 µM [rising, single point]. Regarding `O=C(CCN1C(=O)C2CC=CCC2C1=O)Nc1ccc(S(=O)(=O)N2CCCCC2)cc1` (stereo unspecified), the cell number change was 7.23%. Turning to `CCOC(=O)N1CCN(C(=O)c2cc(-n3cnnc3)ccc2Cl)CC1`, the cell number change is -11.2%. Besides, under setting [2], the AC50 is 0.92 µM [falling, full curve, poor fit]. In the case of `Cc1c(Cl)c(=O)oc2cc(OCC(=O)NCc3cccs3)ccc12`, the cell number change came out at 9.11%. For the same molecule, under setting [2], the AC50 is 32.6 µM [rising, single point]. On to `COc1ccccc1/C=C1\SC(=S)N(C(C(=O)O)c2ccccc2)C1=O` (stereo unspecified), for which the cell number change is 19.9%.

`O=C1NC(C(F)(F)F)(C(F)(F)F)N=C2SC=CN12`: the cell number change was 16.4%. Under setting [2], the half-maximal activity concentration (AC50) was 4.11 µM [rising, single point]. Consider `CCCCn1c(=O)[nH]c(=O)c2c1nc(-c1ccc3ccccc3c1)n2CC`, for which the AC50 was 6.51 µM [rising, single point] under setting [1] and 6.51 µM [rising, partial curve] under setting [2]. Regarding `Cc1cc(Nc2ccccc2)n(CCC#N)n1`, the cell number change was 6.8%. With `COc1ccc2oc(C(=O)OCC(=O)Nc3ccc(OC)c(S(N)(=O)=O)c3)c(C)c2c1`, the cell number change was found to be 49.5%. Further, under setting [1], the AC50 is 29.1 µM [rising, single point]. Regarding `CCOC(=O)CN1CC23C=CC(O2)C(C(=O)NCc2ccccc2OC)C3C1=O` (stereo unspecified), the cell number change was -53.6%. For the same molecule, under setting [1], the AC50 was 0.146 µM [falling, full curve, poor fit]. Further, under setting [2], the AC50 is 9.2 µM [falling, partial curve]. As for `CC(C)(C)c1ccc(C(=O)Nc2ccc(O)c3c(=O)cc(-c4ccccc4Cl)oc23)cc1`, the cell number change is -16.3%. Further, the AC50 under setting [1] was 1.84 µM [falling, single point]. Also, the AC50 under setting [2] is 1.84 µM [falling, full curve].

In the case of `O=C(NCc1nnc(SCc2ccccc2)n1-c1ccc(F)cc1)C12CC3CC(CC(C3)C1)C2`, the cell number change was -50.1%. Also, the AC50 under setting [1] was 20.6 µM [falling, single point]. Further, under setting [2], the concentration at half-maximal activity (AC50) is 29.1 µM [falling, single point]. In the case of `CCCc1cc(C(=O)NC(C)C2CCCO2)cs1` (stereo unspecified), the cell number change is 6.8%. In addition, the AC50 under setting [2] is 1.64 µM [falling, partial curve, poor fit].

Consider `COc1ccc(-n2nc(C(=O)NCC(=O)Nc3cc(OC)c(OC)c(OC)c3)c3ccccc3c2=O)cc1OC`, for which the cell number change is -27%. For the same molecule, the AC50 under setting [2] was 29.1 µM [falling, single point]. `CCN(CC)S(=O)(=O)c1cc(NC(=O)c2cccc(N3C(=O)CCC3=O)c2)ccc1Cl`: the cell number change was 10.8%.

`COc1ccc(CCNC(=O)CCc2ccc(S(=O)(=O)NC(C)C)cc2)cc1`: the cell number change stood at 34.2%. The AC50 under setting [1] was 14.6 µM [rising, partial curve]. Moreover, under setting [2], the AC50 is 29.1 µM [rising, single point]. Consider `CCN(CC)c1ccc(S(=O)(=O)Nc2cc(Cl)ccc2Cl)cc1NC(=S)NC(=O)C1CCCC1`, for which the cell number change was found to be 38.9%. Also, the AC50 under setting [1] is 29.1 µM [rising, single point]. The AC50 under setting [2] was 0.326 µM [falling, full curve]. With `CCC(NC(=S)NC1CCCCC1)c1ccccc1` (stereo unspecified), the cell number change is 20.9%. For the same molecule, the AC50 under setting [2] was 7.31 µM [rising, single point].

Take `Cc1ccc2[nH]c(C)c(CCNC(=O)NC3CCCCC3)c2c1`: the cell number change is -9.79%. In the case of `CCN1C(=O)[C@H]2[C@@H](c3ccc(C)cc3)N3C(=O)N(c4cccc(F)c4)C(=O)[C@@]3(Cc3ccc(Cl)cc3)[C@H]2C1=O`, the AC50 under setting [2] is 20.6 µM [rising, single point].

`Cc1ccc(Cl)cc1NC(=S)N(CCCN1CCOCC1)Cc1ccccn1`: the cell number change was -23.8%. Besides, under setting [2], the half-maximal activity concentration (AC50) was 4.11 µM [falling, full curve, poor fit]. Turning to `CCN(CC)CCOc1ccc2c(c1)C(=NNC(=O)c1ccccn1)c1cc(OCCN(CC)CC)ccc1-2`, the cell number change is -60.2%. The AC50 under setting [1] is 29.1 µM [falling, single point]. Further, the half-maximal activity concentration (AC50) under setting [2] is 20.6 µM [falling, partial curve]. For the molecule `COc1cc(SC)ccc1C(=O)NC1CCCc2ccccc21` (stereo unspecified), the cell number change stood at 11.5%. Besides, the AC50 under setting [2] was 29.1 µM [falling, single point].

Regarding `O=C(COC(=O)C1CCN(c2ccc(C(F)(F)F)cn2)CC1)Nc1ncc(Cl)cc1Cl`, the cell number change is -7.37%. For the same molecule, the AC50 under setting [2] was 0.092 µM [rising, full curve, poor fit]. As to `CC(=O)c1ccc(NC(=O)/C=C/c2ccc(C)cc2)cc1`, the cell number change was 7.79%. Besides, the AC50 under setting [2] is 10.3 µM [falling, partial curve]. As to `CC(=O)Nc1cccc(/C(C)=N/Nc2nc3ccccc3s2)c1`, the AC50 under setting [1] is 6.51 µM [rising, single point].
